The chains are these.
B1: HE2B8-1 (LR2B8HC + IgG1 constant region G1m(3) allotype allele 1, plus LR2B8LC + Kappa constant region Km(3) allotype allele 1) (antibody, V domains shown)
VH: QVQLVQPGAEVVKPGTSVKLSCKASGYTFTTYWMHWVNQAPGQGLEWIGEINPTNGHTNYNEKFKGKATLTVDKSTSTAYMELSSLRSEDTAVYYCARNYVGSIFDYWGQGTLLTVSS
VL: DIVMTQSPDSMAMSVGERVTLNCKASENVVSYVSWYQQKPGQSPKLLIYGASNRNTGVPDRFSGSGSATDFTLTISSVQAEDVADYHCGQSYNYPYTFGQGTKLEIKR
B2: HE2B8-2 (LR2B8HC + IgG1 constant region G1m(3) allotype allele 1, plus LRMR2B8LC + Kappa constant region Km(3) allotype allele 1) (antibody, V domains shown)
VH: QVQLVQPGAEVVKPGTSVKLSCKASGYTFTTYWMHWVNQAPGQGLEWIGEINPTNGHTNYNEKFKGKATLTVDKSTSTAYMELSSLRSEDTAVYYCARNYVGSIFDYWGQGTLLTVSS
VL: DIVMTQSPDSLAMSLGERVTLNCKASENVVSYVSWYQQKPGQSPKLLIYGASNRESGVPDRFSGSGSATDFTLTISSVQAEDVADYHCGQSYNYPYTFGQGTKLEIKR
B3: HE2B8-3 (LRMR2B8HC + IgG1 constant region G1m(3) allotype allele 1, plus LR2B8LC + Kappa constant region Km(3) allotype allele 1) (antibody, V domains shown)
VH: QVQLVQPGAEVKKPGTSVKLSCKASGYTFTTYWMHWVRQAPGQGLEWIGEINPTNGHTNYNQKFQGRATLTVDKSTSTAYMELSSLRSEDTAVYYCARNYVGSIFDYWGQGTLLTVSS
VL: DIVMTQSPDSMAMSVGERVTLNCKASENVVSYVSWYQQKPGQSPKLLIYGASNRNTGVPDRFSGSGSATDFTLTISSVQAEDVADYHCGQSYNYPYTFGQGTKLEIKR
B4: HE2B8-4 (LRMR2B8HC + IgG1 constant region G1m(3) allotype allele 1, plus LRMR2B8LC + Kappa constant region Km(3) allotype allele 1) (antibody, V domains shown)
VH: QVQLVQPGAEVKKPGTSVKLSCKASGYTFTTYWMHWVRQAPGQGLEWIGEINPTNGHTNYNQKFQGRATLTVDKSTSTAYMELSSLRSEDTAVYYCARNYVGSIFDYWGQGTLLTVSS
VL: DIVMTQSPDSLAMSLGERVTLNCKASENVVSYVSWYQQKPGQSPKLLIYGASNRESGVPDRFSGSGSATDFTLTISSVQAEDVADYHCGQSYNYPYTFGQGTKLEIKR

By UniProt entry, the sequences of proteins in these tests, tags left out. Where a name states a change or a piece, a line headed by the entry shows the natural chain unless it says otherwise.
UniProt Q08048: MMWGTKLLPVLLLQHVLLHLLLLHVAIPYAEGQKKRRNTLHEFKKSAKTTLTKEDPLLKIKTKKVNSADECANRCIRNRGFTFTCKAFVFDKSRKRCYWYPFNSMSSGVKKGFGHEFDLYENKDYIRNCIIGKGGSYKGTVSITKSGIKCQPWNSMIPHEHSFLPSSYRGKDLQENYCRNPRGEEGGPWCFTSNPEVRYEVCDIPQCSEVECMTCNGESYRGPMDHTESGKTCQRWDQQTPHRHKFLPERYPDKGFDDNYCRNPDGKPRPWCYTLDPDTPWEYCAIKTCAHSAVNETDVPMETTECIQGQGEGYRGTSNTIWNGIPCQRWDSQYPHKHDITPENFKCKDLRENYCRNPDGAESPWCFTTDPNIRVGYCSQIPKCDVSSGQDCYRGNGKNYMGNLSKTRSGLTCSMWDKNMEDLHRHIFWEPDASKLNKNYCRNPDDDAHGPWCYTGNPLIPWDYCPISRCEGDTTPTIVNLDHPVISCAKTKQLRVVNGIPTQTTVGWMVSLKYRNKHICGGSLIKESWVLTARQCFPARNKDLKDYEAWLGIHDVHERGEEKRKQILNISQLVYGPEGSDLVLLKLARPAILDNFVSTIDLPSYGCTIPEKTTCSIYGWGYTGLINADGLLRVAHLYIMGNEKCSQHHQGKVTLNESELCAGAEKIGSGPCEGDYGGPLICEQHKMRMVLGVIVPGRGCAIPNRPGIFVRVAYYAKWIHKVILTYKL

Four molecules from US20140178935A1 can be followed below.

These are yes or no findings as the source states them, for the method shown. Some results given as binding are weak or reduced against the parent protein; the word gives no strength.

The experiment has as its target recombinant mouse-human-mouse (mhm) chimeric HGF protein containing the human V495-L585 HGF sequence disposed within mouse HGF sequence (mouse-human-mouse chimera) (UniProt Q08048). The experiment is described as follows: SPR, antibody immobilized, HGF protein injected, 25 C.
For the molecule B1, the binding entry is “binds”.

As for B2, the binding result is given as “binds”. To B3 belongs “binds”; to B4, “binds”.
